Tested on: human retinas
Assay: HPLC analysis of carotenoids in human retinas from AMD and non-AMD (control) eyes
Conditions: for Concentration, AMD Eyes, Annulus Inner / Concentration, AMD Eyes, Annulus Medial / Concentration, AMD Eyes, Annulus Outer / Loss/Gain in AMD Eyes (%), Annulus Inner / Loss/Gain in AMD Eyes (%), Annulus Medial / Loss/Gain in AMD Eyes (%), Annulus Outer / Concentration, Control Eyes, Annulus Inner / Concentration, Control Eyes, Annulus Medial / Concentration, Control Eyes, Annulus Outer: Table 4; for Loss/Gain in AMD Eyes (%), Annulus Inner / Loss/Gain in AMD Eyes (%), Annulus Medial / Loss/Gain in AMD Eyes (%), Annulus Outer / reduction in AMD eyes / Loss/Gain in AMD Eyes (%), Annulus: AMD versus control eyes; for Concentration, Control Eyes, Annulus Inner / Concentration, Control Eyes, Annulus Medial / Concentration, Control Eyes, Annulus Outer / Concentration, Control Eyes, Annulus: non-AMD control eyes; for Concentration, AMD Eyes, Annulus / Loss/Gain in AMD Eyes (%), Annulus / Concentration, Control Eyes, Annulus: Table 3
Description: For each normal and AMD eye, the neural retina was cut into a central disk and 2 concentric annuli using trephines of 3, 11 and 21 mm. to extract the carotenoids, the tissues were ground in ethanol/water (1:1) to which 10 ng lutein monomethyl ester was added as an internal standard. Separation and quantitation of zeaxanthin and lutein fractions was by reversed-phase HPLC using Phenomenex column. Carbamate derivatives of individual stereoisomers of both zeaxanthin and lutein were separated on a normal-phase HPLC column, using the methods of Ruttiman et al (1983) and […] et al. (1995), the results being plotted in FIG. 2. Retinas were first cut be circular punches into an inner disc (inner annulus) of 3 mm diameter which encompassed most of the macular retina, a medial reing (medial annulus) encompassing the retinal tissues between 3 and 11 mm in diameter, and an outer ring (outer annulus) encompassing the retinal tissues between 11 and 22 mm in diameter.

| Compound | Concentration, AMD Eyes, Annulus Inner (inner annulus) | Concentration, AMD Eyes, Annulus Medial (medial annulus) | Concentration, AMD Eyes, Annulus Outer (outer annulus) | Loss/Gain in AMD Eyes (%), Annulus Inner (inner annulus) [%] | Loss/Gain in AMD Eyes (%), Annulus Medial (medial annulus) [%] | Loss/Gain in AMD Eyes (%), Annulus Outer (outer annulus) | Concentration, Control Eyes, Annulus Inner (inner annulus) | Concentration, Control Eyes, Annulus Medial (medial annulus) | Concentration, Control Eyes, Annulus Outer (outer annulus) | Concentration, AMD Eyes, Annulus (inner annulus) | Concentration, AMD Eyes, Annulus (medial annulus) | Concentration, AMD Eyes, Annulus (outer annulus) | Loss/Gain in AMD Eyes (%), Annulus (inner annulus) [%] | Loss/Gain in AMD Eyes (%), Annulus (medial annulus) [%] | Loss/Gain in AMD Eyes (%), Annulus (outer annulus) [%] | Concentration, Control Eyes, Annulus (inner annulus) | Concentration, Control Eyes, Annulus (medial annulus) | Concentration, Control Eyes, Annulus (outer annulus) | also measured |
| --- | --- | --- | --- | --- | --- | --- | --- | --- | --- | --- | --- | --- | --- | --- | --- | --- | --- | --- | --- |
| CC1=C(/C=C/C(C)=C/C=C/C(C)=C/C=C/C=C(C)/C=C/C=C(C)/C=C/C2=C(C)C[C@H](O)CC2(C)C)C(C)(C)C[C@H](O)C1 [Meso-Zeaxanthin, 3R,3′S-(meso)-zeaxanthin] | 0.993 picomoles zeaxanthin per square millimeter of retina | 0.032 picomoles zeaxanthin per square millimeter of retina | 0.005 picomoles zeaxanthin per square millimeter of retina | −30 | −14 | −17% | 1.399 picomoles zeaxanthin per square millimeter of retina | 0.037 picomoles zeaxanthin per square millimeter of retina | 0.006 picomoles zeaxanthin per square millimeter of retina | – | – | – | – | – | – | – | – | – | reduction in AMD eyes (inner annulus): 30%; reduction in AMD eyes (medial annulus): 14%; reduction in AMD eyes (outer annulus): 17% |
| CC1=C[C@H](O)CC(C)(C)[C@H]1/C=C/C(C)=C/C=C/C(C)=C/C=C/C=C(C)/C=C/C=C(C)/C=C/C1=C(C)C[C@@H](O)CC1(C)C [lutein] | – | – | – | – | – | – | – | – | – | 1.462 picomoles of compound per square millimeter of retina | 0.127 picomoles of compound per square millimeter of retina | 0.045 picomoles of compound per square millimeter of retina | −37 | −32 | −22 | 2.313 picomoles of compound per square millimeter of retina | 0.187 picomoles of compound per square millimeter of retina | 0.058 picomoles of compound per square millimeter of retina | – |
| CC1=C(/C=C/C(C)=C/C=C/C(C)=C/C=C/C=C(C)/C=C/C=C(C)/C=C/C2=C(C)C[C@@H](O)CC2(C)C)C(C)(C)C[C@H](O)C1 [R,R′-Zeaxanthin, 3R,3′R-zeaxanthin] | 1.399 picomoles zeaxanthin per square millimeter of retina | 0.087 picomoles zeaxanthin per square millimeter of retina | 0.025 picomoles zeaxanthin per square millimeter of retina | −19 | −7 | +25% | 1.730 picomoles zeaxanthin per square millimeter of retina | 0.094 picomoles zeaxanthin per square millimeter of retina | 0.02 picomoles zeaxanthin per square millimeter of retina | – | – | – | – | – | – | – | – | – | – |
| zeaxanthin [Total Zeaxanthin] | – | – | – | – | – | – | – | – | – | 2.055 picomoles of compound per square millimeter of retina | 0.097 picomoles of compound per square millimeter of retina | 0.022 picomoles of compound per square millimeter of retina | −40 | −25 | −19 | 3.451 picomoles of compound per square millimeter of retina | 0.130 picomoles of compound per square millimeter of retina | 0.027 picomoles of compound per square millimeter of retina | – |

Reference: US20010009926A1, “Mesozeaxanthin formulations for treatment of retinal disorders” (THE HOWARD FOUNDATION, priority 1993, published 2001)
